One assay concerns the target Ring1BI53A (UniProt Q9CQJ4). Put plainly: affinity purification with mass spectrometry; IP with anti-Ring1B (MBL, D139-3) from 400 ug ESC nuclear extract (WT cells, or Ring1B-/- cells rescued with Ring1BI53A), Protein G Sepharose 2 h at 4 C, washes BC300 (300 mM NaCl, 0.05% NP40) and BC100; 4-20% SDS-PAGE, bands cut, nLC-ESI-MS/MS; peptides also in the control IgG lane discarded; IgG heavy and light chain bands omitted.

Chains of the proteins cited; added tags and fusions are not shown. Lines headed by an entry give the natural chain unless they say otherwise; changes in a name come on top.
UniProt Q9CQJ4: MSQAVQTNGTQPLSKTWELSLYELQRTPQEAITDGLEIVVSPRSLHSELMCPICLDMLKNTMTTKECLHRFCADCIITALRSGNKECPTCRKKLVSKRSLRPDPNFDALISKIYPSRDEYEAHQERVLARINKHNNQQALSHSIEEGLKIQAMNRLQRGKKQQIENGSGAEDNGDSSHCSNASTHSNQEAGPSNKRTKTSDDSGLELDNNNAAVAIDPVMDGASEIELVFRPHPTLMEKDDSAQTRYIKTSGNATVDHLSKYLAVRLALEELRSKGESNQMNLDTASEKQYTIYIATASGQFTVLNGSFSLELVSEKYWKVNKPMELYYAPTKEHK

Assay [1] concerns the target Ring1B (mouse (endogenous in ESCs)) (UniProt Q9CQJ4). Described as above.

No constants are given. Whether binding was seen depends on the method and setting. In cells and extracts the contact can be indirect. A yes stands for co-enrichment or nearness to the bait. Other partners may have been found.

B1: Pcgf3 (protein, UniProt Q8BTQ0 1-241)
chain: MLTRKIKLWDINAHITCRLCSGYLIDATTVTECLHTFCRSCLVKYLEENNTCPTCRIVIHQSHPLQYIGHDRTMQDIVYKLVPGLQEAEMRKQREFYHKLGMEVPGDIKGEACSAKQHLDPRNGETKADDNSNKETAEEKQEEDNDYHRSDEQVSICLECNSSKLRGLKRKWIRCSAQATVLHLKKFIAKKLNLSSFNELDILCNEEILGKDHTLKFVVVTRWRFKKAPLLLHYRPKMDLL
Regarding B1, the binding entry (with Ring1BI53A; in assay [1]) was “binds” throughout.

B2: Mel18 (protein, UniProt P23798 1-342)
chain: MHRTTRIKITELNPHLMCALCGGYFIDATTIVECLHSFCKTCIVRYLETNKYCPMCDVQVHKTRPLLSIRSDKTLQDIVYKLVPGLFKDEMKRRRDFYAAYPLTEVPNGSNEDRGEVLEQEKGALGDDEIVSLSIEFYEGVRDREEKKNLTENGDGDKEKTGVRFLRCPAAMTVMHLAKFLRNKMDVPSKYKVEILYEDEPLKEYYTLMDIAYIYPWRRNGPLPLKYRVQPACKRLTLPTVPTPSEGTNTSGASECESVSDKAPSPATLPATSSSLPSPATPSHGSPSSHGPPATHPTSPTPPSTAAGTTTATNGGTSNCLQTPSSTSRGRKMTVNGAPCPP
For the molecule B2, the binding entry (in the assay with Ring1BI53A; in assay [1]) was “binds” each time.

B3: Pcgf6 (protein, UniProt Q99NA9 1-353)
chain: MDEAETDATENKRASEAKRASAMPPPPPPPPPISPPALIPAPAAGEEGPASLGQAGAAGCSRSRPPALEPERSLGRLRGRFEDYDEELEEEEEMEEEEEEEEEMSHFSLRLESGRADSEDEEERLINLVELTPYILCSICKGYLIDATTITECLHTFCKSCIVRHFYYSNRCPKCNIVVHQTQPLYNIRLDRQLQDIVYKLVINLEEREKKQMHDFYKERGLEVPKPAAPQPVPSSKGKTKKVLESVFRIPPELDMSLLLEFIGANEDTGHFKPLEKKFVRVSGEATIGHVEKFLRRKMGLDPACQVDIICGDHLLERYQTLREIRRAIGDTAMQDGLLVLHYGLVVSPLKIT
B3: the binding result (with Ring1BI53A; in assay [1]) was “binds” throughout.

B4: HMG20a (protein, UniProt Q9DC33 1-346)
chain: MESLMASSTLPPLFADEDGSKESNDLATSGLTHPEGPYGSAATSTTNPEFVEDLSQGQLLQSEASNAVEGNEQRPEDEQRSKRGGWSKGRKRKKPLRDSNAPKSPLTGYVRFMNERREQLRAKRPEVPFPEITRMLGNEWSKLPPEEKQRYLDEADRDKERYMKELEQYQKTEAYKVFSRKTQDRQKGKSHRQDAARQATHDHEKETEVKERSVFDIPIFTEEFLNHSKAREAELRQLRKSNMEFEERNAALQKHVESMRTAVEKLEVDVIQERSRNTVLQQHLETLRQMLTSSFASMPLPGSGEIPTVDTIDSYMNRLHSIILANPQDNENFIATVREVVNRLDR
With B4, the binding entry (with Ring1BI53A; in assay [1]) was “binds” throughout.

B5: HMG20b (protein, UniProt Q9Z104 1-317)
chain: MSHGPRQPGAATAPAGGKTPGQHGAFVVAVKQERSEGSRAGEKGPQEEEPVKKRGWPKGKKRKKILPNGPKAPVTGYVRFLNERREQIRTRHPDLPFPEITKMLGAEWSKLQPAEKQRYLDEAEKEKQQYLKELWAYQQSEAYKVCTEKIQENKIKKEDSSSGLMNTLLNGHKGVDCDGFSTFDVPIFTEEFLDQNKAREAELRRLRKMNVAFEEQNAVLQRHTQSMSSARERLEQELALEERRTLALQQQLQAVRQALTASFASLPVPGTGETPTLGTLDFYMARLHGAIERDPAQHERLIARVKEILARVASEHL
For B5, the binding result (with Ring1BI53A; in assay [1]) was “binds” each time.

B6: Rybp (protein, UniProt Q8CCI5 1-228)
chain: MTMGDKKSPTRPKRQAKPAADEGFWDCSVCTFRNSAEAFKCSICDVRKGTSTRKPRINSQLVAQQVAQQYATPPPPKKEKKEKVEKPDKEKPEKDKDISPSVTKKNTNKKTKPKSDILKDPPSEANSIQSANATTKTSETNHTSRPRLKNVDRSTAQQLAVTVGNVTVIITDFKEKTRSSSTSSSTVTSSAGSEQQNQSSSGSESTDKGSSRSSTPKGDMSAVNDESF
On to B6, for which the binding result (in the assay with Ring1BI53A; in assay [1]) was “binds” in each case.

(Values after paper PMC3322156.)
